Results taken from patent US20080207517A1 (INSTITUT PASTEUR, published 2008).
No constants are given. Whether binding was seen depends on the method and setting. Some entries that bind do so weakly or less than the wild type.

Biological target: T1, CC2 (WT) (murine, N-terminal acetyl group; C-terminal amide)
T1 construct: Forms a trimer at 10 uM in gel filtration; also called CC2 peptide; CC2 wild type
T1 peptide: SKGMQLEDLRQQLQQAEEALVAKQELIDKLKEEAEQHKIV
Assay: gel filtration (Superdex 75) at 10 µM, self-association

Question: With SKGMQLEDLRQQLQQAEEALVAKQELIDKLKEEAEQHKIV (N-terminal acetyl group; C-terminal amide) [CC2 (WT)] as the binder, how does the binding read?
Answer: The binding was “binds”.
